# Inconclusive results, whose numbers are uncertain, are shown with a selection of clear calls. Potencies of inconclusive entries are doubtful fits and often do not repeat. Active and inactive are the calls of the source. Calls come from the whole dose curve; as a rule, active = well fitted cell-killing curve with a large enough effect; inconclusive = small, poorly fitted or top-dose-only effect, or effect the other way; inactive = no such curve, though single readings can be large or run the other way.
# What was measured:
# [1] = Quantitative High-Throughput drug screen in 47 multiple myeloma cell lines against the NCATS MIPE library collection: RPMI8226_ATCC cell viability assay (AID 1919871); details: RPMI8226 myeloma viability, CellTiter-Glo ATP luminescence, 48 h; series mostly up to 45.8 µM; note: nearly all actives have a fitted effect of over 30% in size
# Method in brief: (§1)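 qHTS format: cells plated (500/well), pin-dosed with MIPE 4.0 compounds, kept 48 h at 37 °C. Readout was CellTiter-Glo luminescence, median RLU.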
# [2] = Quantitative High-Throughput drug screen in 47 multiple myeloma cell lines against the NCATS MIPE library collection: KMS11_JCRBsus cell viability assay (AID 1919873); details: KMS11 myeloma viability, CellTiter-Glo ATP luminescence, 48 h; series mostly up to 45.8 µM; note: nearly all actives have a fitted effect of over 50% in size
# Method in brief: as §1
# [3] = Quantitative High-Throughput drug screen in 47 multiple myeloma cell lines against the NCATS MIPE library collection: KMS28BM_JCRB cell viability assay (AID 1919874); details: CellTiter-Glo ATP, 48 h; series mostly up to 45.8 µM; note: nearly all actives have a fitted effect of over 35% in size
# Method in brief: as §1
# [4] = Quantitative High-Throughput drug screen in 47 multiple myeloma cell lines against the NCATS MIPE library collection: OPM2_DSMZ cell viability assay (AID 1919872); details: OPM2 myeloma viability, CellTiter-Glo ATP luminescence, 48 h; series mostly up to 45.8 µM; note: nearly all actives have a fitted effect of over 30% in size
# Method in brief: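 Relative luminescence from CellTiter-Glo served as the viability signal, referenced to DMSO-treated (100%) and cell-free medium (0%) controls. Treatment lasted 48 hours at 37C with 500 cells per well.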
# Potency is the fitted concentration of half-maximal effect.
structure (smiles),measurement,setting,value
CC12CC3CC(C)(C1)CC(N)(C3)C2,Potency,[1],"inconclusive: 0.0235 µM [rising, full curve, poor fit]"
same,Potency,[2],"inconclusive: 11.8 µM [cytotoxic, single point]"
O=C(NCC1CN(c2ccc(N3CCOCC3=O)cc2)C(=O)O1)c1ccc(Cl)s1 (stereo not given),Potency,[1],inactive
same,Potency,[2],"inconclusive: 33.2 µM [cytotoxic, single point]"
COc1ccccc1OCC(O)COC(N)=O (stereo not given),Potency,[1],inactive
same,Potency,[2],"inconclusive: 0.0083 µM [rising, full curve, poor fit]"
same,Potency,[3],"inconclusive: 0.0935 µM [rising, full curve, poor fit]"
O=C(Nc1cccc(C(F)(F)F)c1)Nc1cc(S(=O)(=O)NC2CC2)ccc1-c1ccsc1,Potency,[4],active: 3.72 µM
Cc1cnc(CNC(=O)c2c(=O)c3ccc(N4CCCN(C)CC4)nc3n3c2sc2ccccc23)cn1,Potency,[4],"inconclusive: 14.4 µM [cytotoxic, single point]"
NC1=N[C@H]2[C@H](CS[C@H]2CCCCC(=O)O)N1,Potency,[1],"inconclusive: 0.0005 µM [rising, full curve, poor fit]"
same,Potency,[3],inactive
CN(C)c1ccc(-c2nc3ncc(Cl)c(N4CCN(CC(=O)Nc5nccs5)CC4)c3[nH]2)cc1,Potency,[4],"inconclusive: 3.72 µM [cytotoxic, full curve, poor fit]"
CCOC(=O)[C@H](CCc1ccccc1)N[C@H]1CS[C@H](c2cccs2)CN(CC(=O)O)C1=O,Potency,[4],"inconclusive: 37.2 µM [cytotoxic, single point]"
NC1(C(=O)N[C@@H](CCO)c2ccc(Cl)cc2)CCN(c2ncnc3[nH]ccc23)CC1,Potency,[4],active: 13.2 µM
same,Potency,[2],"inconclusive: 5.26 µM [cytotoxic, partial curve]"

# A different layout for some results above.
structure (smiles) | measurement | setting | value
O=C(Nc1cccc(C(F)(F)F)c1)Nc1cc(S(=O)(=O)NC2CC2)ccc1-c1ccsc1 | Potency | [4] | active: 3.72 µM
NC1(C(=O)N[C@@H](CCO)c2ccc(Cl)cc2)CCN(c2ncnc3[nH]ccc23)CC1 | Potency | [2] | inconclusive: 5.26 µM [cytotoxic, partial curve]

# From PubChem BioAssay (NCATS)
